In this assay the target is KMT2B histone methyltransferase (human (endogenous in MCF-7)) (UniProt Q9UMN6). Description: co-IP; endogenous proteins; MCF-7 cells treated with E2 for 24 h; whole-cell lysates immunoprecipitated with KMT2B or ERα antibodies; western blot with anti-KMT2B or anti-ERα. A general note: A western blot detects proteins with antibodies after separation by electrophoresis.

Sequences of proteins named here, by UniProt entry; tags and fusion partners are left off.
UniProt Q9UMN6: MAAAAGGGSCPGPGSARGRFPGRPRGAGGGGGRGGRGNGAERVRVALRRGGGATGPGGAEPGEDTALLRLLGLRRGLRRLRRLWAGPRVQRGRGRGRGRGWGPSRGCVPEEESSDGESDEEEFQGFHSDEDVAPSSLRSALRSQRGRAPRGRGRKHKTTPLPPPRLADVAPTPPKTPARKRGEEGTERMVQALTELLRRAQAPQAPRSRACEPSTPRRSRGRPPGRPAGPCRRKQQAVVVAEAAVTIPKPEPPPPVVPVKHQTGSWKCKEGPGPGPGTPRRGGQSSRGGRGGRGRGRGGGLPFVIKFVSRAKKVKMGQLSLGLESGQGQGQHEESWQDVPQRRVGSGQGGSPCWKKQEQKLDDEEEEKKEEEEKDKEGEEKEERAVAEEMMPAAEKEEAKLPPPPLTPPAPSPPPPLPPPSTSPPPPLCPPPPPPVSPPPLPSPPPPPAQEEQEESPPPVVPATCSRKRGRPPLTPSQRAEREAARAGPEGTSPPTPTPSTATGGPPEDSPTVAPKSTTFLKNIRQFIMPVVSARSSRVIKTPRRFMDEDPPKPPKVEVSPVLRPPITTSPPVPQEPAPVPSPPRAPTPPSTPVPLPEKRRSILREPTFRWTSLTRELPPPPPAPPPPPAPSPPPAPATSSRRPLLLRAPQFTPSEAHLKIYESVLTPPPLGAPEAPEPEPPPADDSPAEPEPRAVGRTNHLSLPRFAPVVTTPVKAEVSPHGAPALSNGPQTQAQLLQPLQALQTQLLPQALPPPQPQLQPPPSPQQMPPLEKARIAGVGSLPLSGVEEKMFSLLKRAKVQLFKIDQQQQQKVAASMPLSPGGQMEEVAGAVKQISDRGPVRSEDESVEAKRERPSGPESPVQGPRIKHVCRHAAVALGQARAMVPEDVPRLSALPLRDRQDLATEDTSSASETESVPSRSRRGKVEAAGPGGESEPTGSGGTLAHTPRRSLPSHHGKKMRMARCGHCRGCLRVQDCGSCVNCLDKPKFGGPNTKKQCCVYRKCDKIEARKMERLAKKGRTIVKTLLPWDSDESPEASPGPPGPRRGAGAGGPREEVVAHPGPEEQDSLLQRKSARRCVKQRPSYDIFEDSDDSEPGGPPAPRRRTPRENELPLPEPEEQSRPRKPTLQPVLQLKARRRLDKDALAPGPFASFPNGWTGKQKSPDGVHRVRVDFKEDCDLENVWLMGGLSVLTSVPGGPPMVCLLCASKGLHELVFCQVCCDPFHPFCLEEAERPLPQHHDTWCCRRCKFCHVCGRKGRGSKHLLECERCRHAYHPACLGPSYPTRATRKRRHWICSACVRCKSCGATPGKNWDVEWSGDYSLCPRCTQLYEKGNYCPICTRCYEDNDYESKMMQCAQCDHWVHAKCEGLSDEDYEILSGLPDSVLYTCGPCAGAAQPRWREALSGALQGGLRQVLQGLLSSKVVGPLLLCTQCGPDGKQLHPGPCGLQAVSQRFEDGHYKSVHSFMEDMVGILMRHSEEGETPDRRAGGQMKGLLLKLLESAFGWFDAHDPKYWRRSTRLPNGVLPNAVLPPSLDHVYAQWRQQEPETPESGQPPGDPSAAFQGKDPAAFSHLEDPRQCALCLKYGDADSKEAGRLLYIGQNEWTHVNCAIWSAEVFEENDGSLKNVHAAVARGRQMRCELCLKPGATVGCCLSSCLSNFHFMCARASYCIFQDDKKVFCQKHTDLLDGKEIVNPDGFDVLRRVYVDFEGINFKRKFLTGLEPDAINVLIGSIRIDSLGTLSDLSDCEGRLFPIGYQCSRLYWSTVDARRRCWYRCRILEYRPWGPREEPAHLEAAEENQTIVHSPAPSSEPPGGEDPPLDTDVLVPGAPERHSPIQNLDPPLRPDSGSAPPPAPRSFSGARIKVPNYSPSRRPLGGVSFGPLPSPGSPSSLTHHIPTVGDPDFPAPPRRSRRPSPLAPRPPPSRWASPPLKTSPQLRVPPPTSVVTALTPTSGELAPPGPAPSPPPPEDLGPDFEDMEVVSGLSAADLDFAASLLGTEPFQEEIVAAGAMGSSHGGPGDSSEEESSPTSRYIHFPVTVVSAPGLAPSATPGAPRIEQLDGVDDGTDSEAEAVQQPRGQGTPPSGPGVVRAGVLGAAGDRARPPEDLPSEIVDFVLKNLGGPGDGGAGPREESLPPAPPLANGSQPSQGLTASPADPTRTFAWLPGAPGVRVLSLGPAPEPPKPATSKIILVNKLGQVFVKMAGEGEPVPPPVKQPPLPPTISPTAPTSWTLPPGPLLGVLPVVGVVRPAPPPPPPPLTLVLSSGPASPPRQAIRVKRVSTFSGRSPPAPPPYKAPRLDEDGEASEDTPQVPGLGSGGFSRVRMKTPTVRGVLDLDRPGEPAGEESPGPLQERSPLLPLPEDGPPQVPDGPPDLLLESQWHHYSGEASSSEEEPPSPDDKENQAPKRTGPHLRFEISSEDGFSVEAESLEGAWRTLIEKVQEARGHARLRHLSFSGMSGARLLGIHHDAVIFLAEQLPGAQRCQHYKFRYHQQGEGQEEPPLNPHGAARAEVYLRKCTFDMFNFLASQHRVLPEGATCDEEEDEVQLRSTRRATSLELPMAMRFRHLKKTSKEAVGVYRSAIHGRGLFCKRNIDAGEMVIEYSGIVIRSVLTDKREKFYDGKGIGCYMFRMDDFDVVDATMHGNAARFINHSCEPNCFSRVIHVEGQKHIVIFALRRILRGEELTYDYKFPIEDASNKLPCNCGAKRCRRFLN
UniProt P03372: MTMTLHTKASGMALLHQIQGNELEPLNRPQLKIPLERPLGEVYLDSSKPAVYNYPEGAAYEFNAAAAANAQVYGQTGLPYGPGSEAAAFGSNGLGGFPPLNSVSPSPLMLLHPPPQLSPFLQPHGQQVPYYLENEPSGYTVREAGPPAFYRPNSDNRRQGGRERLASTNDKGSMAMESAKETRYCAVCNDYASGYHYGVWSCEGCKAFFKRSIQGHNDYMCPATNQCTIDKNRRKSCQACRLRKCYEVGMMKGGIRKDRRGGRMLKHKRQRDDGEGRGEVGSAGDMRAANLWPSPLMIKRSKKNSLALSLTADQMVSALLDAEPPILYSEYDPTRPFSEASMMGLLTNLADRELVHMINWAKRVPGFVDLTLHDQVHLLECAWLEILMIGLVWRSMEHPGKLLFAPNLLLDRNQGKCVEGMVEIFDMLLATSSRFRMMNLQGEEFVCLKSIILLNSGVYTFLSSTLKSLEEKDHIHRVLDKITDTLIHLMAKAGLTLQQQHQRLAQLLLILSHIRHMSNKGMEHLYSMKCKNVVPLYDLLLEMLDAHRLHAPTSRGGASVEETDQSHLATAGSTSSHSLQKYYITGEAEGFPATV

Binding data for one substance are collected here from article PMC5091760.

Results are given in words; binding and its absence hold for the method and conditions named. Binding seen in cells or lysates may run through a third protein. Some entries that bind do so weakly or less than the wild type.

With “estrogen receptor alpha (ERα) (from UniProt P03372 1-595)”, the binding result is given as “binds”.
